Counter-ions that a name gives are not always drawn. ± gives the standard deviation of the averaged measurements. The list shows a part of the results. Most values lie at the level of the controls, where differences are scatter. Where a SMILES comes first, the peptide text is derived from it. [ ]: non-standard residue; d: D form.
system: hPSC-derived cortical neurons (WA09); assay: nucleus area z-score vs screen plate; higher = larger nuclei (more mature); conditions: 5 µM; treatment: days 7-14 after plating, readout day 21

Row | Compound | nucleus area z-score
1 | CC(=O)O[C@H]1C(=O)[C@@]2(C)[C@H]([C@H](OC(=O)c3ccccc3)[C@]3(O)C[C@H](OC(=O)[C@H](O)[C@@H](NC(=O)c4ccccc4)c4ccccc4)C(C)=C1C3(C)C)[C@]1(OC(C)=O)CO[C@@H]1C[C@@H]2O [Paclitaxel] | -0.194
2 | CCCNC(=O)c1cn2ncnc(Nc3cc(C(=O)NC4CC4)ccc3C)c2c1C | 0.901
3 | Cn1ncc(Cl)c1-c1cc(C(=O)N[C@H](CN)Cc2cccc(F)c2)sc1Cl | -6.01
4 | O=S(=O)(N=Cc1c(O)ccc2ccccc12)c1cccs1 | 0.542
5 | CC(=O)O[C@]1(C(C)=O)CC[C@H]2[C@@H]3C[C@H](C)C4=CC(=O)CC[C@]4(C)[C@H]3CC[C@@]21C [Medroxyprogesterone acetate] | 0.597
6 | CN1CC(=O)NC1=N [Creatinine] | 0.463
7 | O=S(=O)(O)c1cc(O)ccc1O [Ethamsylate] | -0.179
8 | Nc1cccc2c1C(=O)N(C1CCC(=O)NC1=O)C2=O (stereo unspecified) [Pomalidomide] | 0.681
9 | CCCCCCCCCCCCCCCCCCOP(=O)([O-])OC1CC[N+](C)(C)CC1 [Perifosine (KRX-0401)] | -0.161
10 | CC(C)C[C@@H]1NC(=O)[C@@H](C(C)C)NC(=O)[C@@H]2CCCN2C(=O)[C@@H](CC(=O)O)NC(=O)[C@@H](Cc2c[nH]c3ccccc23)NC1=O (cyclo(L[dW][dD]P[dV])) | 0.154
11 | Fc1ccc(Cl)cc1-c1nc(Nc2ccncc2)c2nccnc2n1 | 3.5
12 | CCC[C@H](N[C@H]1CCc2cc(F)cc(F)c2C1)C(=O)Nc1cn(C(C)(C)CNCC(C)(C)C)cn1 | -0.527
13 | Cc1nc(NC(=O)N2CCC[C@H]2C(N)=O)sc1-c1ccnc(C(C)(C)C(F)(F)F)c1 | -1.2
14 | C[N+]1(C)[C@@H]2C[C@@H](OC(=O)C(O)(c3cccs3)c3cccs3)C[C@H]1[C@@H]1O[C@@H]12 [Tiotropium Bromide hydrate] | 0.217
15 | O=C(O)/C=C/c1ccc(Cn2ccnc2)cc1 [Ozagrel] | 1.01
16 | COc1ccccc1OCC(O)COC(N)=O (stereo unspecified) [Methocarbamol] | -0.787

Shown as labelled records: 2 of the compounds above
C[N+]1(C)[C@@H]2C[C@@H](OC(=O)C(O)(c3cccs3)c3cccs3)C[C@H]1[C@@H]1O[C@@H]12 [Tiotropium Bromide hydrate]
  nucleus area z-score: 0.217
O=C(O)/C=C/c1ccc(Cn2ccnc2)cc1 [Ozagrel]
  nucleus area z-score: 1.01

Following part:

Row | Compound | nucleus area z-score
17 | CN1CCC[C@@H]1Cc1c[nH]c2ccc(CCS(=O)(=O)c3ccccc3)cc12 [Eletriptan HBr] | -2.68
18 | CC[C@H]1OC(=O)[C@H](C)[C@@H](O[C@H]2C[C@@](C)(OC)[C@@H](O)[C@H](C)O2)[C@H](C)[C@@H](O[C@@H]2O[C@H](C)C[C@H](N(C)C)[C@H]2O)[C@](C)(O)C[C@@H](C)CN(C)[C@H](C)[C@@H](O)[C@]1(C)O [Azithromycin] | -0.805 ± 0.66
19 | Cn1cncc1[C@@](N)(c1ccc(Cl)cc1)c1ccc2c(c1)c(-c1cccc(Cl)c1)cc(=O)n2C [Tipifarnib] | -2.5
20 | CCCC(=O)Nc1ccc(OCC(O)CNC(C)C)c(C(C)=O)c1 (stereo unspecified) [Acebutolol HCl] | -0.645
21 | COC(=O)C1=C(C)NC(C)=C(C(=O)OCCN2CCN(C(c3ccccc3)c3ccccc3)CC2)C1c1cccc([N+](=O)[O-])c1 (stereo unspecified) [Manidipine] | -2.47
22 | COc1cccc(C=NCCN=Cc2cccc(OC)c2[O-])c1[O-].[Cl-].[Mn+3] | -0.32
23 | CC(C)(O)CNc1ncc(-c2ccnc(Nc3ccnc(Cl)c3)n2)c(CC2CC2)n1 | -5.96
24 | CC(=O)Nc1cccc2c1c(Sc1ccc(Cl)cc1)c(C)n2CC(=O)O | -0.326
25 | O=S(=O)(c1ccccc1)c1cnc2c(N3CCNCC3)cccc2c1 | -0.337
26 | CNC(=O)c1cc(Oc2ccc(NC(=O)Nc3cc(C(C)(C)C)nn3-c3ccc4ncccc4c3)c(F)c2)ccn1 [DCC-2036 (Rebastinib)] | -1.98
27 | CC1(C)[C@@H](OC(=O)CCC(=O)O)CC[C@]2(C)[C@H]3C(=O)C=C4[C@@H]5C[C@@](C)(C(=O)O)CC[C@]5(C)CC[C@@]4(C)[C@]3(C)CC[C@@H]12 [Carbenoxolone Sodium] | 0.706
28 | C[N+](C)(C)NCCC(=O)[O-] [Mildronate] | 1.52
29 | COc1cc(Nc2nc3ccccc3nc2NS(=O)(=O)c2ccc(NC(=O)c3ccc(C)c(OC)c3)cc2)cc(OC)c1 | 0.585
30 | CC1=C(C(=O)Nc2cc3cn[nH]c3cc2F)C(c2ccc(C(F)(F)F)cc2)CC(=O)N1 (stereo unspecified) | -0.827
31 | C[C@@H](O[C@H]1OCCN(Cc2n[nH]c(=O)[nH]2)[C@H]1c1ccc(F)cc1)c1cc(C(F)(F)F)cc(C(F)(F)F)c1 [Aprepitant] | -0.477

— the supplement of paper PMC11348887
